The source of these data is paper PMC7819943, “Rice protein-binding microarrays: a tool to detect cis-acting elements near promoter regions in rice”.

Protein sequences, listed by entry. Tags and fused reporters are not part of them.
UniProt Q0JBA9, entry or part of it: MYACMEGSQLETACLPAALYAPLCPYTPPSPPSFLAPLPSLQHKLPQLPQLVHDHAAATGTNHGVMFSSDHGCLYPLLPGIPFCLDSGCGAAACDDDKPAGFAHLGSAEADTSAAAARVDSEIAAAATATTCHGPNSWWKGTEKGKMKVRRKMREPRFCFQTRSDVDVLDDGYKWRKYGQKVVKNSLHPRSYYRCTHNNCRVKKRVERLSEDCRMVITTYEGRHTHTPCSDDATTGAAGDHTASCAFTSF

The other results are listed elsewhere or left out.

The target in this experiment is OsWRKY34 (Oryza sativa, UniProt Q0JBA9 1-250). The experiment is described as follows: protein-binding microarray (RPBM); PBS, 2% BSA, 51.3 ng/ul salmon testes DNA, 50 uM zinc acetate, 200 nM TF, 25 C, 1 h; high values mean tight binding. As to conditions: protein: recombinant; tags: N-terminal polyhistidine and DsRed monomer fusion (pET32a); label: CyDye5-dUTP incorporated in the synthesized complementary strand; 3' TTTTT single-stranded linker to array surface; dsDNA, one strand shown. Put shortly:
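The binding signal is fluorescence intensity per array feature (arbitrary units). Readings came from an Axon 4000B scanner after a washed, 2% BSA-blocked, double-stranded custom Agilent array had been incubated for 1 h at 25 °C with 200 nM protein and 50 µM zinc acetate. The protein was a Ni–NTA-purified transcription factor fused N-terminally to polyhistidine and DsRed, expressed in E. coli BL21-CodonPlus.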
“TAGTCTCTAGTCTCTACTGCTACTAGTACTGGTAATCTGCCGGAGTCACCTAGTGCAG”: the binding signal is 8100 fluorescence intensity (a.u.). As for “CATAGAGCACTCTGGTTAACACGTTTCTCACGGCGCGCGCCGGAGTCACCTAGTGCAG”, the binding signal is 9450 fluorescence intensity (a.u.). The value for “TGTTTTTATCTCAGCTGTTGTTGTGGAAGAGCACATTTCGCGGAGTCACCTAGTGCAG” was 8520 fluorescence intensity (a.u.). The value for “CCACGGTTTCCCAGACTTGAAATTTGACCAAACCCAACCCCGGAGTCACCTAGTGCAG” was 9690 fluorescence intensity (a.u.). The result for “CCAGACGCACGAATGCATGACTCAGGTCCAGTTCTTTTCTCGGAGTCACCTAGTGCAG” reads 9850 fluorescence intensity (a.u.); that for “TCAACCTCTACCACCGCACATCTCACATACTCATCTTTTTCGGAGTCACCTAGTGCAG”, 9820 fluorescence intensity (a.u.); that for “GCCGCCTCCGCCTCCGGCCTCGTTCCTCACCGGCGGCGGCCGGAGTCACCTAGTGCAG”, 8300 fluorescence intensity (a.u.). For the sequence “TGGTGTGGTTTAGTTAACCTGCCCCGAAATCCTTCTCTCTCGGAGTCACCTAGTGCAG”, the binding signal was 9520 fluorescence intensity (a.u.). On to “GTGATGTCTCTTCAACCATACTCCCAGTCCCATAAAAAAACGGAGTCACCTAGTGCAG”, for which the binding signal was 8560 fluorescence intensity (a.u.). The value for “TTTGTCCCGAGTCAAACATTAGTATCTTTGACTATCAATTCGGAGTCACCTAGTGCAG” was 15400 fluorescence intensity (a.u.); that for “GTTTTGCAATCCTCTGTTTTGTACCTGCATTCCTATCGAACGGAGTCACCTAGTGCAG” was 10000 fluorescence intensity (a.u.); that for “ACAGTTTGTACTTGAGTTTGTATAGTTTGGCCTCCTTTTTCGGAGTCACCTAGTGCAG” was 12200 fluorescence intensity (a.u.). Regarding “CTCTCCCATGCCGTCTCAGCTCAGCTGCCTTTAGCTACTACGGAGTCACCTAGTGCAG”, the binding signal was 12900 fluorescence intensity (a.u.). As to “AATCACTACTATATTTTTCTTGTGTTTTACTGATCTCTATCGGAGTCACCTAGTGCAG”, the binding signal was 8360 fluorescence intensity (a.u.). With “TCCTTGTATGAATCCATTGCCTTGCTTCTGCTTGCCCATTCGGAGTCACCTAGTGCAG”, the binding signal was 8530 fluorescence intensity (a.u.).

Take “CCAATGTATATCTTGTTTGCTGTTGTTCTAGCATTTGTAGCGGAGTCACCTAGTGCAG”: the binding signal is 8120 fluorescence intensity (a.u.).

Consider “GCCTTATTCTTCATGCCTAACGCAGCCCAGCTCAGCTACGCGGAGTCACCTAGTGCAG”, for which the binding signal was 10600 fluorescence intensity (a.u.).

On to “TAACAGTTGACACAGGGAGCGGAGGGGCAGCTTGGTCATTCGGAGTCACCTAGTGCAG”, for which the binding signal was 8420 fluorescence intensity (a.u.).

Take “TGTATGTTATTATCTTTGTTACCCTTACATTACTTCCTTACGGAGTCACCTAGTGCAG”: the binding signal is 8760 fluorescence intensity (a.u.). In the case of “TCGGTCGCTGAGTTTTCCCCGTACAGACCATATGTCCCGCCGGAGTCACCTAGTGCAG”, the binding signal is 9910 fluorescence intensity (a.u.).

Consider “ATTGCTGCTGGTATTCTTTTCAAGTCTGGGCATTATTTTTCGGAGTCACCTAGTGCAG”, for which the binding signal is 10800 fluorescence intensity (a.u.). The result for “GTCTCATCAACCACCGCAATTTCAATTTTCTTCACATGTGCGGAGTCACCTAGTGCAG” reads 8450 fluorescence intensity (a.u.); that for “GCGACACCCAAACCCACGGCCCAGATCGCTTGACCCCGTCCGGAGTCACCTAGTGCAG”, 8620 fluorescence intensity (a.u.). The result for “CTCCGTTTCACAGCGCAAGTCATTCTAGCATTTCTCACATCGGAGTCACCTAGTGCAG” reads 9590 fluorescence intensity (a.u.). The result for “ACTCAATTATCACCTCATTTTACATATCTTATTAATTTTACGGAGTCACCTAGTGCAG” reads 9040 fluorescence intensity (a.u.); that for “GTCTAGTACATTATCTACTCCAGTGCCTACTACTACTACTCGGAGTCACCTAGTGCAG”, 10800 fluorescence intensity (a.u.). Consider “CCACACCCATCTCCCGGCCATTTCTGCTCGCTCTCTCAGACGGAGTCACCTAGTGCAG”, for which the binding signal is 9090 fluorescence intensity (a.u.). “ACTTCTTGCTGATCTTCTTGGACTGCTTTTGCACCTTCTTCGGAGTCACCTAGTGCAG”: the binding signal was 9360 fluorescence intensity (a.u.). For “AGCTTATTATTATTGTTGTTGTTGTATGATTGACACTAGACGGAGTCACCTAGTGCAG”, the binding signal was 9940 fluorescence intensity (a.u.). The result for “CAACAAAAGCTCCATTACACGTATTTTACAATTGTTTTTCCGGAGTCACCTAGTGCAG” reads 12000 fluorescence intensity (a.u.); that for “GCCAAACGCGCCAGATCCGCGCCTCCTCCACTCACACGCGCGGAGTCACCTAGTGCAG”, 8910 fluorescence intensity (a.u.).

For “TTATGCGTGACTTGTCTTTTTAATTTTTTTTATAATTTTTCGGAGTCACCTAGTGCAG”, the binding signal was 8300 fluorescence intensity (a.u.). For “CGCCTCGTCATCGTCGTCGGCCCGGTTGCCCACCTCTTCACGGAGTCACCTAGTGCAG”, the binding signal was 8680 fluorescence intensity (a.u.). The result for “TGTGTGTGTGTGTGTTGAATCATCCGACATCGTGCTATTACGGAGTCACCTAGTGCAG” reads 12300 fluorescence intensity (a.u.). The result for “GCCCCTTTTAGGTATGCTTCCTTACACCTTCATCTTCAACCGGAGTCACCTAGTGCAG” reads 8970 fluorescence intensity (a.u.); that for “GTTAGGATTTTTTTTTCTTCCTCTGCTTCTTGGTTTGAACCGGAGTCACCTAGTGCAG”, 8190 fluorescence intensity (a.u.); that for “GGTTCCGCCGCTGCCGTCTCCATTGTCAATAGCCATCGACCGGAGTCACCTAGTGCAG”, 10700 fluorescence intensity (a.u.). The value for “ATAATTCAGATGATCCTCCATTGACCATTGACCATTGCCCCGGAGTCACCTAGTGCAG” was 9930 fluorescence intensity (a.u.); that for “GCGGTGTGATGCCGGCACTGTGTCCTTTTCAAACATACACCGGAGTCACCTAGTGCAG” was 9950 fluorescence intensity (a.u.). As to “CAGCTCCGCACTGCCCCAACATCATTTTCTTGTACTCCATCGGAGTCACCTAGTGCAG”, the binding signal is 8610 fluorescence intensity (a.u.). On to “CCCTTCCACGCGCCGCCGCCGCCGATTCTTTGCTCCGTTTCGGAGTCACCTAGTGCAG”, for which the binding signal was 11200 fluorescence intensity (a.u.). The result for “AGTATATTTTTTCGTCAACTTTACTTCAACCATCTTCCCACGGAGTCACCTAGTGCAG” reads 10800 fluorescence intensity (a.u.).
